Tested on: HLA-A*24 molecules of primary tumors
Experiment: Identification and relative LC-MS quantitation of HLA-A*24 tumor-associated peptides presented on tissue samples (XPRESIDENT presentation profiles)
Set-up: species or system human
Settings: for ENTITIES: Table 9A: selected HLA-A*24-binding tumor-associated peptides, cancer entities on which the peptide was found presented; for Peptide Presentation on cancer entities: Table 9B: selected HLA-A*24 peptides, presentation on additional cancer entities

Substance | ENTITIES | Peptide Presentation on cancer entities
310 (IYAPTLLVF; listed as Homo sapiens) [compound 310] | GC, GB, RCC, HCC, NSCLC | –
311 (EYLQNLNHI; listed as Homo sapiens) [compound 311] | PCA | –
312 (SYTSVLSRL; listed as Homo sapiens) [compound 312] | PCA, HCC, NSCLC | –
313 (KYTHFIQSF; listed as Homo sapiens) [compound 313] | NSCLC, GC, RCC, GB, PCA, HCC | –
315 (FYIPHVPVSF; listed as Homo sapiens) [compound 315] | HCC, NSCLC | –
316 (VYFEGSDFKF; listed as Homo sapiens) [compound 316] | GB, PCA, HCC, NSCLC | –
318 (TYSNSAFQYF; listed as Homo sapiens) [compound 318] | GC, RCC, PCA, HCC, NSCLC | –
319 (KYSDVKNLI; listed as Homo sapiens) [compound 319] | PCA, HCC, NSCLC, GB | –
341 (SYLTQHQRI; listed as Homo sapiens) [compound 341] | PCA, NSCLC | –
346 (IYVIPQPHF; listed as Homo sapiens) [compound 346] | NSCLC, GC, GB, HCC | –
349 (QYSIISNVF; listed as Homo sapiens) [compound 349] | GC, HCC, NSCLC | –
351 (IFHEVPLKF; listed as Homo sapiens) [compound 351] | HCC, NSCLC | –
353 (TYGKIDLGF; listed as Homo sapiens) [compound 353] | HCC, NSCLC, GC, GB | –
355 (IYVTGGHLF; listed as Homo sapiens) [compound 355] | HCC, NSCLC, GC, RCC, GB, PCA | –
356 (NYMPGQLTI; listed as Homo sapiens) [compound 356] | RCC, NSCLC, GC | –
357 (QFITSTNTF; listed as Homo sapiens) [compound 357] | NSCLC | –
358 (YYSEVPVKL; listed as Homo sapiens) [compound 358] | NSCLC, GB | –

Substance | ENTITIES | Peptide Presentation on cancer entities
359 (NYGVLHVTF; listed as Homo sapiens) [compound 359] | RCC, HCC, NSCLC | –
362 (VYNYAEQTL; listed as Homo sapiens) [compound 362] | GC, GB, NSCLC | –
364 (KYLNENQLSQL; listed as Homo sapiens) [compound 364] | – | NSCLC
365 (VFIDHPVHL; listed as Homo sapiens) [compound 365] | NSCLC, GB | –
366 (QYLELAHSL; listed as Homo sapiens) [compound 366] | HCC, NSCLC, GC | –
367 (LYQDHMQYI; listed as Homo sapiens) [compound 367] | HCC, NSCLC, GC, GB, PCA | –
368 (KYQNVKHNL; listed as Homo sapiens) [compound 368] | NSCLC, HCC | –
370 (RFIGIPNQF; listed as Homo sapiens) [compound 370] | PCA | –
371 (AYSHLRYVF; listed as Homo sapiens) [compound 371] | GB, PCA, HCC, NSCLC | –
373 (GYISNGELF; listed as Homo sapiens) [compound 373] | PCA, HCC | –
375 (KYTDYILKI; listed as Homo sapiens) [compound 375] | NSCLC | –
378 (VYIAELEKI; listed as Homo sapiens) [compound 378] | HCC, NSCLC | –
379 (VFIAQGYTL; listed as Homo sapiens) [compound 379] | – | NSCLC
380 (VYTGIDHHW; listed as Homo sapiens) [compound 380] | NSCLC, GC, RCC, GB, PCA, HCC | –
381 (KYPASSSVF; listed as Homo sapiens) [compound 381] | – | RCC, NSCLC
383 (RYKPGEPITF; listed as Homo sapiens) [compound 383] | GB, PCA, HCC, NSCLC | –
384 (RYFDVGLHNF; listed as Homo sapiens) [compound 384] | GC, GB, PCA, HCC, NSCLC | –

— patent publication US10159726B2, “Peptides, combination of peptides and scaffolds for use in immunotherapeutic treatment of various cancers” (Immatics Biotechnologies GmbH, priority 2015, dated 2018)
